Assay results from US20240066075A1, “METHODS AND USES OF MICROBIOME COMPOSITIONS, COMPONENTS, OR METABOLITES FOR TREATING EYE DISORDERS” (MarvelBiome, Inc., priority 2021, published 2024).

Assay: Metabolites detected (Appendix 3, Tables 7 and 8: putative metabolites, ratio between two groups, p-value)
Conditions: for Relative Area Control Mean / Concentration (μM) Control Mean: Control group; for Relative Area Control Mean / Relative Area Treatment Mean: putative metabolite assigned by m/z and MT (HMT DB); for Relative Area Treatment Mean / Concentration (μM) Treatment Mean: Treatment group; for Comparative Analysis Control vs Treatment Ratio: ratio of averaged detection values, the latter (Treatment) as denominator; for Concentration (μM) Control Mean / Concentration (μM) Treatment Mean: quantitative estimation of target metabolites

Compound | Relative Area Control Mean | Relative Area Treatment Mean | Comparative Analysis Control vs Treatment Ratio | Concentration (μM) Control Mean | Concentration (μM) Treatment Mean
1-Methylnicotinamide | 2.9E−04 | 2.4E−04 | 1.2 | – | –
CCC(O)C(=O)O (stereo not drawn) [2-Hydroxybutyric acid] | – | – | – | 27 µM | 25 µM
O=C(O)CCC(=O)C(=O)O [2-Oxoglutanic acid] | – | – | – | 47 µM | 72 µM
CC(C)C(=O)C(=O)O [2-Oxoisovaleric acid] | – | – | – | 7.6 µM | 6.6 µM
CC(O)CC(=O)O (stereo not drawn) [3-Hydrocybutric acid] | – | – | – | 406 µM | 237 µM
Nc1ncnc2c1ncn2[C@@H]1O[C@H](COP(=O)(O)OP(=O)(O)O)[C@@H](O)[C@H]1O [ADP] | – | – | – | 1.0 µM | 4.7 µM
Nc1ncnc2c1ncn2[C@@H]1O[C@H](COP(=O)(O)O)[C@@H](O)[C@H]1O [AMP] | – | – | – | 3.4 µM | 5.1 µM
Nc1ncnc2c1ncn2[C@@H]1O[C@H](COP(=O)(O)OP(=O)(O)OP(=O)(O)O)[C@@H](O)[C@H]1O [ATP] | – | – | – | 2.5 µM | 13 µM
C[C@H](N)C(=O)O [Ala] | – | – | – | 282 µM | 355 µM
N=C(N)NCCC[C@H](N)C(=O)O [Arg] | – | – | – | 90 µM | 111 µM
NC(=O)C[C@H](N)C(=O)O [Asn] | – | – | – | 33 µM | 51 µM
N[C@@H](CC(=O)O)C(=O)O [Asp] | – | – | – | 6.3 µM | 8.3 µM
C[N+](C)(C)CC(=O)O [Bataine] | – | – | – | 68 µM | 75 µM
NCCC(=O)N[C@@H](Cc1cnc[nH]1)C(=O)O [Carnosine] | – | – | – | 0.6 µM | 0.6 µM
C[N+](C)(C)CCO [Choline] | – | – | – | 23 µM | 22 µM
O=C(O)CC(O)(CC(=O)O)C(=O)O [Citric acid] | – | – | – | 335 µM | 332 µM
NC(=O)NCCC[C@H](N)C(=O)O [Citrulline] | – | – | – | 63 µM | 70 µM
CN(CC(=O)O)C(=N)N [Creatine] | – | – | – | 124 µM | 156 µM
NCCCC(=O)O [GABA] | – | – | – | 0.4 µM | 1.0 µM
Nc1nc2c(ncn2[C@@H]2O[C@H](COP(=O)(O)OP(=O)(O)O)[C@@H](O)[C@H]2O)c(=O)[nH]1 [GDP] | – | – | – | – | 3.0 µM

Compound | Relative Area Control Mean | Relative Area Treatment Mean | Comparative Analysis Control vs Treatment Ratio | Concentration (μM) Control Mean | Concentration (μM) Treatment Mean
Nc1nc2c(ncn2[C@@H]2O[C@H](COP(=O)(O)OP(=O)(O)OP(=O)(O)O)[C@@H](O)[C@H]2O)c(=O)[nH]1 [GTP] | – | – | – | – | 4.5 µM
NC(=O)CC[C@H](N)C(=O)O [Gln] | – | – | – | 672 µM | 729 µM
N[C@@H](CCC(=O)O)C(=O)O [Glu] | – | – | – | 25 µM | 32 µM
O=C(O)[C@H](O)[C@@H](O)[C@H](O)[C@H](O)CO [Gluconic acid] | – | – | – | 18 µM | 1.5 µM
O=C[C@H](O)[C@@H](O)[C@H](O)[C@H](O)COP(=O)(O)O [Glucose 6-phosphate] | – | – | – | 2.3 µM | 2.6 µM
NCC(=O)O [Gly] | – | – | – | 327 µM | 319 µM
O=P(O)(O)OCC(O)CO (stereo not drawn) [Glycerol 3-phosphate] | – | – | – | 11 µM | 11 µM
O=C(O)CO [Glycolic acid] | – | – | – | 72 µM | 74 µM
O=CC(=O)O [Glyoxylic acid] | – | – | – | 15 µM | 16 µM
N[C@@H](Cc1c[nH]cn1)C(=O)O [His] | – | – | – | 58 µM | 70 µM
N[C@@H](CCO)C(=O)O [Homoserine] | – | – | – | 0.9 µM | 0.9 µM
O=C(O)[C@@H]1C[C@@H](O)CN1 [Hydroxyproline] | – | – | – | 17 µM | 18 µM
CC[C@H](C)[C@H](N)C(=O)O [Ile] | – | – | – | 84 µM | 97 µM
O=C(O)CC(C(=O)O)C(O)C(=O)O (stereo not drawn) [Isocitric acid] | – | – | – | 26 µM | 26 µM
CC(O)C(=O)O (stereo not drawn) [Lactic acid] | – | – | – | 4,704 μM | 6,362 μM
CC(C)C[C@H](N)C(=O)O [Leu] | – | – | – | 125 µM | 147 µM
NCCCC[C@H](N)C(=O)O [Lys] | – | – | – | 230 µM | 287 µM
O=C(O)CC(O)C(=O)O (stereo not drawn) [Malic acid] | – | – | – | 60 µM | 75 µM
CSCC[C@H](N)C(=O)O [Met] | – | – | – | 32 µM | 51 µM
CN(C)CC(=O)O [N,N-Dimethylglycine] | – | – | – | 5.8 µM | 5.7 µM

Compound | Relative Area Control Mean | Relative Area Treatment Mean | Comparative Analysis Control vs Treatment Ratio | Concentration (μM) Control Mean | Concentration (μM) Treatment Mean
N[C@@H](Cc1ccccc1)C(=O)O [Phe] | – | – | – | 76 µM | 101 µM
O=C(O)[C@@H]1CCCN1 [Pro] | – | – | – | 73 µM | 96 µM
NCCCCN [Putrescine] | – | – | – | – | 1.7 µM
CC(=O)C(=O)O [Pyruvic acid] | – | – | – | 137 µM | 177 µM
O=C(CO)[C@H](O)[C@H](O)COP(=O)(O)O [Ribulose 5-phosphate] | – | – | – | 2.8 µM | 3.0 µM
CNCC(=O)O [Sarcosine] | – | – | – | 8.4 µM | 9.8 µM
N[C@@H](CO)C(=O)O [Ser] | – | – | – | 103 µM | 129 µM
NCCCCNCCCN [Spermidine] | – | – | – | 1.2 µM | 1.2 µM
O=C(O)CCC(=O)O [Succinic acid] | – | – | – | 139 µM | 164 µM
C[C@@H](O)[C@H](N)C(=O)O [Thr] | – | – | – | 122 µM | 148 µM
Cc1cn([C@H]2C[C@H](O)[C@@H](CO)O2)c(=O)[nH]c1=O [Thymidine] | – | – | – | 3.9 µM | 4.0 µM
N[C@@H](Cc1c[nH]c2ccccc12)C(=O)O [Trp] | – | – | – | 70 µM | 88 µM
N[C@@H](Cc1ccc(O)cc1)C(=O)O [Tyr] | – | – | – | 76 µM | 95 µM
O=c1ccn([C@@H]2O[C@H](COP(=O)(O)OP(=O)(O)OP(=O)(O)O)[C@@H](O)[C@H]2O)c(=O)[nH]1 [UTP] | – | – | – | – | 2.2 µM
CC(C)[C@H](N)C(=O)O [Val] | – | – | – | 191 µM | 222 µM
O=C(O)/C=C(/CC(=O)O)C(=O)O [cis -Aconitic acid] | – | – | – | 23 µM | 23 µM
NCCC(=O)O [β-Ala] | – | – | – | 1.2 µM | 1.3 µM
Cysteine glutathione disulfide | 6.2E−03 | 4.9E−03 | 1.2 | – | –
